Screen size: about 400,000 compounds; about 5,500 (1.4%) were called active. Inconclusive results, whose numbers are uncertain, are shown with a selection of clear calls. Calls come from the whole dose curve; as a rule, active = well fitted cell-killing curve with a large enough effect; inconclusive = small, poorly fitted or top-dose-only effect, or effect the other way; inactive = flat fitted curve, though single readings scatter. Potencies beside an inconclusive call are fits to weak or partial responses and may not hold up.
Assay: qHTS assay for MDR1-selective chemotherapeutics: Primary screen using the parental adenocarcinoma cell KB-3-1; note: nearly all actives have a fitted effect of over 60% in size
Settings: KB-3-1 viability, CellTiter-Glo ATP luminescence, 72 h; activity change, negative = cytotoxic: at 46.1 µM (top of the series)
How it was run: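 Here the drug-naive KB-3-1 line serves as comparator for MDR sub-line selectivity; cells received compound titrations, 72 h at 37 °C, then CellTiter-Glo readout.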
For `COC(=O)C1=C(c2ccc(-c3ccccc3)c(F)c2)C[C@@H]2CC[C@H]1N2C(=O)NCc1ccco1`, the Potency was inconclusive: 23.1 µM [cytotoxic, single point].
With `O=C(Nc1nccs1)c1c(O)c2c(n(Cc3ccco3)c1=O)CCCC2` the Potency was inconclusive: 29.1 µM [cytotoxic, partial curve, poor fit].
For `COc1ccc(CN2CC=C(c3ccc(F)cc3)CC2)cc1Br`, the Potency was inconclusive: 32.6 µM [cytotoxic, single point].
In the case of `Clc1ccc2[nH]c3c(c2c1)CCNC3`, the Potency is reported as inconclusive: 16.4 µM [cytotoxic, single point].
With `COC(=O)C1=C(c2cc3ccccc3o2)C[C@@H]2CC[C@H]1N2C(=O)N1CCCCC1` the Potency was active: 5.8 µM.
For `NC(=O)c1c(NC(=O)c2ccc(S(=O)(=O)N(CCCl)CCCl)cc2)sc2c1CCCCC2`, the activity change, negative = cytotoxic was inconclusive: 36.1%.
In the case of `CCCCN(Cc1ccccc1)C1CCN(CCc2ccccc2)CC1`, the Potency is reported as inconclusive: 29.1 µM [cytotoxic, single point].
With `Cc1nc2cc(C(F)(F)F)ccc2n1C1CCN(Cc2nnnn2Cc2ccc3c(c2)OCO3)CC1` the Potency was inconclusive: 29.1 µM [cytotoxic, single point].
For `CSCCC(NC(=O)CCC(=O)OC1CC[C@H]2[C@@H]3CC[C@H]4CC(=O)CC[C@]4(C)[C@H]3CC[C@]12C)C(=O)O` (some centres not stated), the Potency was “inactive”.
With `O=C(CCl)Nc1nccs1` the Potency was inconclusive: 29.1 µM [cytotoxic, single point].
For `c1ccc(-c2[nH]c(-c3ccccc3)[n+](CC3CO3)c2-c2ccccc2)cc1` (configuration not stated), the Potency was inconclusive: 29.1 µM [cytotoxic, single point].
In the case of `Cc1cc(=O)oc2cc(OCC(=O)N3CCN(Cc4ccccc4)CC3)ccc12`, the Potency is reported as inconclusive: 29.1 µM [cytotoxic, partial curve, poor fit].
In the case of `ClCCN(CCCl)c1ccc(-n2cnc3c(Cl)ncnc32)cc1`, the Potency is reported as inconclusive: 14.6 µM [cytotoxic, single point].
With `COC(=O)C1=C(c2ccc3ccccc3c2)C[C@@H]2CC[C@H]1N2C(=O)NCc1ccc(F)cc1` the Potency was inconclusive: 18.4 µM [cytotoxic, single point].
For `O=C(Nc1ccccc1)c1cccn(Cc2ccccc2)c1=O`, the Potency was inconclusive: 9.2 µM [cytotoxic, partial curve, poor fit].
In the case of `O=C(Nc1cccnc1)c1c(O)c2c(n(Cc3ccccc3)c1=O)CCCC2`, the Potency is reported as inconclusive: 29.1 µM [cytotoxic, single point].
In the case of `Brc1cc2c(cc1CN1CCN(c3ccccc3)CC1)OCCO2`, the Potency is reported as inconclusive: 29.1 µM [cytotoxic, single point].

From PubChem BioAssay AID1347075 (National Center for Advancing Translational Sciences (NCATS), 2019)
% is set by controls: 0 for no effect and ±100 for the full control effect; potency is the fitted concentration of half-maximal effect.
